Source: paper PMC9355967
These are yes or no findings as the source states them, for the method shown. Binding seen in cells or lysates may run through a third protein. Some results given as binding are weak or reduced against the parent protein; the word gives no strength. Sequences can lack the tags named with a protein.

By UniProt entry, the sequences of proteins in these tests, tags left out. Residues count along the entry.
UniProt Q9QZQ1, residues 6-370: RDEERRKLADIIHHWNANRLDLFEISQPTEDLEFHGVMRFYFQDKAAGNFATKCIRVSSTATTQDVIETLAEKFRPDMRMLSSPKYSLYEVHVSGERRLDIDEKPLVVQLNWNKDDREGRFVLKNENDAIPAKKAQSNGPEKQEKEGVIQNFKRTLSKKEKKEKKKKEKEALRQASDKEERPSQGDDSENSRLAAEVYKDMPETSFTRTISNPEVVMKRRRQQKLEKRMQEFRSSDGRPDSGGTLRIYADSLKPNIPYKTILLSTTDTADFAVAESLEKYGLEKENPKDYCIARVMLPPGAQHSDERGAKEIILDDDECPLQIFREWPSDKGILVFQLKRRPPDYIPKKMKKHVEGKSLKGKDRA

Molecular target: GST-AFDN RA1/2 (dual RA domains, residues 6-370) (mouse) (UniProt Q9QZQ1)
Assay: pull-down; GST-tagged RA/RBD domains purified from bacteria on glutathione beads mixed with lysates of cells expressing GTPases; beads washed 5X; anti-GFP blot; only the target purified

binding: binds
B1: EGFP-RAP2C-G12V (protein, UniProt Q9Y3L5 1-183)
chain: MREYKVVVLGSVGVGKSALTVQFVTGTFIEKYDPTIEDFYRKEIEVDSSPSVLEILDTAGTEQFASMRDLYIKNGQGFILVYSLVNQQSFQDIKPMRDQIVRVKRYEKVPLILVGNKVDLEPEREVMSSEGRALAQEWGCPFMETSAKSKSMVDELFAEIVRQMNYSSLPEKQDQCCTTCVVQ
